Source: patent US20100256086A1, “NON-HYDROLYZABLE NUCLEOSIDE DI- OR TRI-PHOSPHATE DERIVATIVES AND USES THEREOF” (priority 2007, published 2010)
Some results were stated once for a whole list of compounds, not compound by compound.

Sequences of proteins named here, by UniProt entry; tags and fusion partners are left off. A change or cut given only in a name is not applied to a line headed by its entry. Residues count along the entry.
UniProt P19111, 20-506: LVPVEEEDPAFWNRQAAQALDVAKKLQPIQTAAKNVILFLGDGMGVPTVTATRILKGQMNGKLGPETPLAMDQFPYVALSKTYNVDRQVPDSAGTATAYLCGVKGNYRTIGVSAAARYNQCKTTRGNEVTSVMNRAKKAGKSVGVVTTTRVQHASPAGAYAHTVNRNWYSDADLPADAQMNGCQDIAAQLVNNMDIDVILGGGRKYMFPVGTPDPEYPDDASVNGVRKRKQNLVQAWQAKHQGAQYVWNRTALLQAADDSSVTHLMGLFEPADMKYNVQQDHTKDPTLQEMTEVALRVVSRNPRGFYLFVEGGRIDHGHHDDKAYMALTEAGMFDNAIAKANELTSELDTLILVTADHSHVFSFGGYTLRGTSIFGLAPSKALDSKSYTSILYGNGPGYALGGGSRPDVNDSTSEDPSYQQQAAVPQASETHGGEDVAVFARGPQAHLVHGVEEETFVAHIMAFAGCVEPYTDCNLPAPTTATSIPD
UniProt Q63371: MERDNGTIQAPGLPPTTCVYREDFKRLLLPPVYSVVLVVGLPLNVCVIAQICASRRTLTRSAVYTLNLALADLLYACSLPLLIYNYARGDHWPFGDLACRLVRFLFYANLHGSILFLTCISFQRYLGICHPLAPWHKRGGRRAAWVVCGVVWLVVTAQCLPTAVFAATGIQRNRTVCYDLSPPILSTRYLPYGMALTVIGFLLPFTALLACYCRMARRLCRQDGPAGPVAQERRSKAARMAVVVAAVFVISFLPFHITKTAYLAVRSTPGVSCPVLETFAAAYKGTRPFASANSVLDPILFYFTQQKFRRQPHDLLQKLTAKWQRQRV
UniProt P51582: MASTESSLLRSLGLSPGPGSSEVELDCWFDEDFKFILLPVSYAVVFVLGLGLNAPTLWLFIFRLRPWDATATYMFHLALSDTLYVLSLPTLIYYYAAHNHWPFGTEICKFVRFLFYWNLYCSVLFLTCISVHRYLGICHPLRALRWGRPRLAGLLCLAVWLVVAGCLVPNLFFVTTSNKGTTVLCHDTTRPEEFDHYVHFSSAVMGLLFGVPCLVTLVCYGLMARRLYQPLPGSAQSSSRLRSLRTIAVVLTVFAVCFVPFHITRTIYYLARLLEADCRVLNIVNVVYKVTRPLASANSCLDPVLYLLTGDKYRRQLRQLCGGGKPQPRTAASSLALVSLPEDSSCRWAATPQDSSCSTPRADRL

What was measured:
[1] = target: T1, calf intestine alkaline phosphatase (Bos taurus, UniProt P19111); assay: Enzymatic stability to alkaline phosphatase; assay type: in vitro ADME; conditions: 30 min at 37° C., HPLC
T1 construct: purchased Fermentas Inc., Glen Burnie, Md
Procedure: Enzyme activity was measured by the release of p-nitrophenol from the nucleotide derivatives using a UV-vis spectrophotometer at 405 nm. Relative activity and resistance of nucleotides to enzymatic hydrolysis were determined at 37° C. Briefly, 32.5 μl of nucleotide derivative (77 μg/ml in 0.1 M Tris-HCl and 0.1 M MgCl2, pH 7.5) and 6 μl of deionized water were incubated with calf intestine alkaline phosphatase (Fermentas Inc., Glen Burnie, Md., 1 unit/μl, 6.25 μl at 37° C. final pH=9.8). After 30 min, the reaction was stopped by incubation at 80° C. for 30 min. The stability of the nucleotide derivative was evaluated by HPLC to monitor possible dephosphorylation products. The mixture was separated on a Gemini analytic column (5u C-18 110A, 150×4.60 mm) using gradient elution with Solvent System I (see Example 1) at 90:10 to 70:30 A:B for 3A and 3B, and 82:18 to 50:50 for 4A, 4B and 2 over 20 min and at a flow rate of 1 ml/min.

rat P2Y6 = target: T2, rat P2Y6 (Rattus norvegicus, UniProt Q63371); assay: Intracellular calcium measurement ([Ca2+]i, fura-2) in 1321N1 astrocytoma cells; assay type: cell-based
T2 construct: expressed in transfected cells
Procedure: (§1) Human 1321N1 astrocytoma cells stably expressing the turkey P2Y1, human P2Y2, human P2Y4 or rat P2Y6 were grown in Dulbecco's modified Eagle's medium containing 5% (v/v) fetal bovine serum, 100 units/ml penicillin, 100 μg/ml streptomycin and 500 μg/ml Geneticin (G-418, Life Technologies, Inc). Changes in the intracellular free calcium concentration, [Ca^2+]i were detected by dual-excitation spectrofluorometric analysis of cell suspensions loaded with fura-2, as previously described (Garrad et al., 1998; Grynkiewicz et al., 1985). Cells were assayed in 10 mM Hepes-buffered saline (pH 7.4) containing 1 mM CaCl2 and 1 mM MgCl2. The cells were pelleted in a microfuge and resuspended in 2 ml of buffer. Concentration-response data were analyzed with the Prism curve fitting program (GraphPAD Software, San Diego, Calif.). Three experiments were conducted on separate days for each P2Y receptor subtype.
(§2) The activities of compounds 2, 4B, 17, 18, 19A, 21 (isomers A and B) were examined at the G protein-coupled P2YRs, P2Y1, P2Y2, P2Y4 and P2Y6 expressed in human 1321N1 astrocytoma cells, based on intracellular calcium measurements, as described in Experimental above. In particular, the activity of compound 2, 4B and 19 was examined at P2Y1R, P2Y2R, P2Y4R and P2Y6R, and the activity of compounds 17, 18 and 21 was examined at P2Y1R only. The experiments were conducted by Prof. Gary A. Weisman from Columbia-Missouri University, Columbia, Mo., USA.

human P2Y4 = target: T3, human P2Y4 (Homo sapiens, UniProt P51582); assay: as above; assay type: cell-based
T3 construct: expressed in transfected cells
Procedure: as §1, §2

SMILES | stability to alkaline phosphatase [1] | activity at P2Y6R, in words (rat P2Y6) | activity at P2Y4R, in words (human P2Y4)
CSc1nc(N)c2ncn(C3OC(COP(=O)(O)OP(=O)(O)CP(=O)(O)O)C(O)C3O)c2n1 (stereo not drawn) [Compound 2, β,γ-CH2-2MeS-adenosine-5′-triphosphate] | remained completely intact | Inactivity | Inactivity
B[P@](=O)(OC[C@H]1O[C@@H](n2cnc3c(N)ncnc32)[C@H](O)[C@@H]1O)OP(=O)(O)CP(=O)(O)O [Compound 3, adenosine-β,γ-CH2-5′-O-(1-boranotriphosphate)] | remained completely intact | Inactivity | Inactivity
B[P@](=O)(OC[C@H]1O[C@@H](n2cnc3c(N)nc(SC)nc32)[C@H](O)[C@@H]1O)OP(=O)(O)CP(=O)(O)O [Compound 4, 2MeS-adenosine-β,γ-CH2-5′-O-(1-boranotriphosphate)] | remained completely intact | Inactivity | Inactivity
